Results reported in patent US10583152B2, “Therapeutic use of a sterile aqueous ophthalmic solution” (Croma-Pharma Gesellschaft M.B.H., priority 2015, dated 2020).
For at least one compound, name, drawing or mass did not settle the structure.

Tested on: superficial punctate keratitis (SPK)
Experiment: Case study, bilateral superficial punctate keratitis (SPK)
Format: in vivo, patient

In the case of `C[C@H]1COc2c(N3CCN(C)CC3)c(F)cc3c(=O)c(C(=O)O)cn1c23` [levofloxacin], the “symptoms under previous medication” value (initial treatment, over the next 3 weeks) is reported as “improvement of the symptoms” and the “SPK / clinical findings under previous medication” value (previous medications before chitosan-NAC, partly added to one another) is reported as “the SPK remained”.
